Results from paper PMC12227600.
These are yes or no findings as the source states them, for the method shown. In cells and extracts the contact can be indirect.

The chains behind the UniProt entries cited, without tags or fusion partners.
UniProt O75116: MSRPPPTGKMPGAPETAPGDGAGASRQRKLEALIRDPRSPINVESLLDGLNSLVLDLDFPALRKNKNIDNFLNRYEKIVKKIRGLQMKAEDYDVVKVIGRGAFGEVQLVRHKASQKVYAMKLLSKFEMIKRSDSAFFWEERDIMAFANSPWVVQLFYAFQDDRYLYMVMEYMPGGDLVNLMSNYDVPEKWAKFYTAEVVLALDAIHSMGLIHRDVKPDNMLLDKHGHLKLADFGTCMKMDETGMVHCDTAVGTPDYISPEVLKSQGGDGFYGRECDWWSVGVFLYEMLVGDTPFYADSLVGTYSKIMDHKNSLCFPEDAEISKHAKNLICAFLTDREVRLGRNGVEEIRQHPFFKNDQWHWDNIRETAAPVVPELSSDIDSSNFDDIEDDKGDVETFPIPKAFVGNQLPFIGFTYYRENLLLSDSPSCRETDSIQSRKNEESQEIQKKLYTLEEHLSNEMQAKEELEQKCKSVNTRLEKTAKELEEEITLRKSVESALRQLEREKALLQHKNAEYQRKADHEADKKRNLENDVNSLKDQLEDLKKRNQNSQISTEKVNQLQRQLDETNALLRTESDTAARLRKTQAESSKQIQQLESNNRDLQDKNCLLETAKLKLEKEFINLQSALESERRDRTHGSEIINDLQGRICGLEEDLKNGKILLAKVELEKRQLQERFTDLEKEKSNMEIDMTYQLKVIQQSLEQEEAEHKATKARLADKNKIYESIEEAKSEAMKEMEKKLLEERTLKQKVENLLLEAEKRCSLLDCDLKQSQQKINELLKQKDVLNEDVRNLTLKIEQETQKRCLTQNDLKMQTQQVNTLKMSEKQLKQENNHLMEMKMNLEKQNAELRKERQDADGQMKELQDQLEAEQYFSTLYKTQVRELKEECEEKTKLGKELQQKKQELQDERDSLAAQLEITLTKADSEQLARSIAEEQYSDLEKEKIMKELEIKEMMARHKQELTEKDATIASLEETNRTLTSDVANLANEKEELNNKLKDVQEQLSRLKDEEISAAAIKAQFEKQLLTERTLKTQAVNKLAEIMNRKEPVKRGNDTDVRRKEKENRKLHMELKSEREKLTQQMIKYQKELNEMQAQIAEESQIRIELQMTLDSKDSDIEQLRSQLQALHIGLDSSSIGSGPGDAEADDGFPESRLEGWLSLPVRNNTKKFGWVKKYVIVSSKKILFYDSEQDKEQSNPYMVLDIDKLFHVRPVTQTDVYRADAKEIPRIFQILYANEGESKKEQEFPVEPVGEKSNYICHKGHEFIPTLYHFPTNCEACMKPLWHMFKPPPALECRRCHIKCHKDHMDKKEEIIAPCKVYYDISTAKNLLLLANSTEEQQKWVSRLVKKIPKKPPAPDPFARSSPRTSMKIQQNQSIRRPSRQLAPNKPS

Target: Rho-associated coiled-coil containing protein kinase 2 (ROCK2) (human (endogenous in QBC-939)) (UniProt O75116)
Test: co-IP; QBC-939 cell lysate (RIPA); 1 mg protein with 2 ug primary antibody at 4 °C overnight, protein A/G beads 2 h at 4 °C, washed three times with RIPA; immunoblot

“dynamin-related protein 1 (Drp1) (from UniProt O00429 1-736)” was tested, and the binding was “no binding”.
